From patent US20100125055A1 (Dana-Farber, published 2010)
These are yes or no findings as the source states them, for the method shown. Binding seen in cells or lysates may run through a third protein. Some binding calls cover weakened binding; strength is not graded here.

Amino acid sequences for entries named in this document (tags omitted). A change or cut given only in a name is not applied to a line headed by its entry.
UniProt P15941: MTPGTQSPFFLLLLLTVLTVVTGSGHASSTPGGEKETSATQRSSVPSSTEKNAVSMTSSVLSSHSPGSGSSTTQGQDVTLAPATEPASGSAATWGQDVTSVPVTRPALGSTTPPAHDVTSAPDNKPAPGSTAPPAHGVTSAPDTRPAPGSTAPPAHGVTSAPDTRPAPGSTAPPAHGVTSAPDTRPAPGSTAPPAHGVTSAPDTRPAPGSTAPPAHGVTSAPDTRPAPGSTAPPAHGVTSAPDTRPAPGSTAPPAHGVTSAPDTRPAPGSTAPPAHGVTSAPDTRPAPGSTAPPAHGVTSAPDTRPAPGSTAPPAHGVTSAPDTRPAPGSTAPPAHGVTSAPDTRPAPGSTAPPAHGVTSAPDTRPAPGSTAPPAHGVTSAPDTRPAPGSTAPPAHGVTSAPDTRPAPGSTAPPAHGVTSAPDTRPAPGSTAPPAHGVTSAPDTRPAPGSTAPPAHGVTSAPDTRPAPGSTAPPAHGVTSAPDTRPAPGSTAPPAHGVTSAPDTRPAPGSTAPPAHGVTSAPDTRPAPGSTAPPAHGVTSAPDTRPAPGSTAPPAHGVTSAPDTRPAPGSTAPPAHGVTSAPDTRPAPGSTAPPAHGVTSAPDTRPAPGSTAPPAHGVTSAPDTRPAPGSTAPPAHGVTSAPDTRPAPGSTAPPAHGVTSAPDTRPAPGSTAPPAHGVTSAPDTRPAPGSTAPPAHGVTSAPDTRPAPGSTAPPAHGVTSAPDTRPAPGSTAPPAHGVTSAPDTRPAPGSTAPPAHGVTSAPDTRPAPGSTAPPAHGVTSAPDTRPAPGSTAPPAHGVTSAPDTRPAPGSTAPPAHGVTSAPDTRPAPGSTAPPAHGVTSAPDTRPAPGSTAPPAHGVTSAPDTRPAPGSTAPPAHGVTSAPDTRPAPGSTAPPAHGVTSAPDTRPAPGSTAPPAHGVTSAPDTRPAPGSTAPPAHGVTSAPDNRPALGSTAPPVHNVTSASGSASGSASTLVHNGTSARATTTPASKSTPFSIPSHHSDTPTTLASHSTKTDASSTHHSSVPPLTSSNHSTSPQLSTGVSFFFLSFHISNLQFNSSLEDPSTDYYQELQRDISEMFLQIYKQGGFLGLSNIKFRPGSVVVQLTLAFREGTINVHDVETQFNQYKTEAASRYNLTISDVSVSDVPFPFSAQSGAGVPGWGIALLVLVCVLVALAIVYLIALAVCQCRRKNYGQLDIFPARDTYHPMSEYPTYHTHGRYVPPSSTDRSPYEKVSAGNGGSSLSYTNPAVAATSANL

Tests used:
[1] = target: GFP-MUC1-CD (human) (UniProt P15941); assay: anti-Flag coprecipitation from transfected 293 cells; interaction that the MUC1/CQC peptide disrupts
[2] = target: Flag-MUC1-CD (human) (UniProt P15941); assay: co-immunoprecipitation from lysates of transfected 293 cells: IP anti-Flag, IB anti-GFP (loading: IP anti-Flag, IB anti-Flag); cells untreated or treated with 5 uM MUC1/CQC or MUC1/AQA for 3 d

Row | Substance | binding [1] | binding [2]
1 | Flag-MUC1-CD (from UniProt P15941 1184-1255) | binds | –
2 | GFP-MUC1-CD (from UniProt P15941 1184-1255) | – | binds
